The data set has as its target T1, MBNL1 (isoform encoded by exons 1-4) (UniProt Q9NR56).
T1 sequence (looked up, limits assumed): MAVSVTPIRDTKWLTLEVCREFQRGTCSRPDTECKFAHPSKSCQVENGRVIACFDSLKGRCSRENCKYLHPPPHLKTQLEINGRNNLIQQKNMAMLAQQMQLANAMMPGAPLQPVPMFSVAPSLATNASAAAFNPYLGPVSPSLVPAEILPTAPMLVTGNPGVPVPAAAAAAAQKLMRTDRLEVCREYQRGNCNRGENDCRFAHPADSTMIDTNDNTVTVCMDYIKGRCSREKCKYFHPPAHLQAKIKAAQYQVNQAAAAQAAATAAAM
The experiment in a line: filter binding. Conditions: 0-500 nM MBNL1, 0.2 nM oligomer, named in Methods, Results say tested control oligomers did not bind; all 2'-O-methyl, phosphodiester; FBA: FBB (50 mM Tris-HCl pH 8.0, 1 mM MgCl2, 0.05% Tween 20) with 250 mM NaCl and 15 mM KCl, 37 C, 30 min, 30 ul; recombinant protein; protein details: N-terminal GST, C-terminal His6; label: radiolabeled; synthetic backbone.

The exact form of at least one protein or probe is not confirmed. A negative result means that nothing was seen under these conditions. At least one verdict rests on a figure or table, not on a statement of the authors. Tags and fusion partners may be left off the protein sequences shown.

Consider one sequence from paper PMC4381072, “Short antisense-locked nucleic acids (all-LNAs) correct alternative splicing abnormalities in myotonic dystrophy”.

As for CAGCAGCAGCAGCAGCAGCAG [PO-2'OMe-CAG-21], the binding result was “no binding”.
